The test system of the experiment is CD2F1 mice, L1210 leukemia ip, survival T/C. Description: NCI In Vivo Anticancer Drug Screen. Data for tumor model L1210 Leukemia (intraperitoneal) in CD2F1 (CDF1) mice. The conditions noted are these: higher T/C = longer survival. The procedure, abridged:
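In this screen, transplantable tumors were grown in mice given either the compound or its vehicle. Results were expressed as the treated measurement relative to the control measurement.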

[1] abbreviates: T/C endpoint: mean survival time, dose: 100.0 mg/kg/injection, schedule: Q04DX003 (ip), vehicle: saline with Tween-80.
[2] abbreviates: T/C endpoint: mean survival time, dose: 200.0 mg/kg/injection, schedule: Q04DX003 (ip), vehicle: saline with Tween-80.
[3] abbreviates: T/C endpoint: mean survival time, dose: 400.0 mg/kg/injection, schedule: Q04DX003 (ip), vehicle: saline with Tween-80.
The mark [4] stands for this setting: T/C endpoint: mean survival time, dose: 32.0 mg/kg/injection, schedule: Q01DX009 (ip), vehicle: acid diluted with saline.
Where [5] appears, read: T/C endpoint: mean survival time, dose: 300.0 mg/kg/injection, schedule: Q01DX001 (ip), vehicle: other.

The list shows only some results of the screen, not a fair sample: it gathers tests that were run many times, whatever their T/C, doses with no T/C, and many T/C values between a quarter and a half above the control. Other doses and runs of a compound stand elsewhere. T/C gives the treated animals as a percentage of the vehicle group. Some entries give survivors of the animals treated and no T/C: the source files T/C as zero there, which appears to mark a toxic dose or a test without result, not a measured value. Some doses without a T/C left all or most animals alive at the check, yet need not have been tolerated: survival well below the control is almost never listed, so the zero probably covers shortened survival too. Survivors were counted at the toxicity check, usually on the fifth day, unless a day is given; later deaths do not show. Schedules are NCI's codes, read here as Q, the interval in days (D) or hours (H), X, the number of doses. For survival time, the PubChem record calls one and a half times the control and up active, and a quarter to a half above the control has no call in these data; cut-offs in other NCI protocols can differ. Some entries were tested several times; the values are given in rising order. Some T/C values are followed by the survivors on the day toxicity was checked, most often the fifth; where none is given, no animal had died by that day.

Regarding `COC(CCl)(CCl)OC`, the survivor count (T/C endpoint: mean survival time, dose: 40.0 mg/kg/injection, schedule: Q01DX009 (ip), vehicle: saline with Tween-80) is 6 of 6.
As to `[B-][N+]1(C)CC[N+]([B-])(C)CC1` (stereo not given), the survivor count (T/C endpoint: mean survival time, dose: 20.0 mg/kg/injection, schedule: Q01DX009 (ip), vehicle: saline with Tween-80) is on record as 4 of 6; the survivor count under setting [1] is 0 of 6; the survivor count under setting [2] is 0 of 6; the survivor count under setting [3] is given as 0 of 6.
On to `CCOC(=O)/C(C#N)=C/P(=O)(OCC)OCC`, for which the survivor count is, setting by setting: (T/C endpoint: mean survival time, dose: 25.0 mg/kg/injection, schedule: Q04DX003 (ip), vehicle: Klucel (hydroxypropylcellulose) (HPC)) 3 of 6; (T/C endpoint: mean survival time, dose: 50.0 mg/kg/injection, schedule: Q04DX003 (ip), vehicle: Klucel (hydroxypropylcellulose) (HPC)) 4 of 6; (T/C endpoint: mean survival time, dose: 100.0 mg/kg/injection, schedule: Q04DX003 (ip), vehicle: Klucel (hydroxypropylcellulose) (HPC)) 2 of 6.
As for `O=NNc1ccccn1`, the T/C runs as follows: (T/C endpoint: mean survival time, dose: 12.0 mg/kg/injection, schedule: Q04DX003 (ip), vehicle: saline) 128 % of control [5 of 6 alive]; (T/C endpoint: mean survival time, dose: 18.0 mg/kg/injection, schedule: Q04DX003 (ip), vehicle: saline) 127 % of control; (T/C endpoint: mean survival time, dose: 27.0 mg/kg/injection, schedule: Q04DX003 (ip), vehicle: saline) 128 % of control; (T/C endpoint: median survival time, dose: 6.25 mg/kg/injection, schedule: Q01DX005 (ip), vehicle: saline) 125 and 128 % of control; (T/C endpoint: median survival time, dose: 12.5 mg/kg/injection, schedule: Q01DX005 (ip), vehicle: saline) 140 and 145 % of control; (T/C endpoint: median survival time, dose: 12.5 mg/kg/injection, schedule: Q01DX009 (ip), vehicle: saline) 134 % of control. Moreover, the T/C (T/C endpoint: median survival time, dose: 25.0 mg/kg/injection, schedule: Q01DX005 (ip), vehicle: saline) was 140 % of control. Besides, the survivor count (T/C endpoint: median survival time, dose: 25.0 mg/kg/injection, schedule: Q01DX009 (ip), vehicle: saline) is listed as 10 of 10.
With `CC(=N)c1ccc(C)cc1`, the survivor count was 2 of 6 (T/C endpoint: mean survival time, dose: 100.0 mg/kg/injection, schedule: Q01DX001 (ip), vehicle: saline sonified); 0 of 6 (T/C endpoint: mean survival time, dose: 200.0 mg/kg/injection, schedule: Q01DX001 (ip), vehicle: saline sonified); 0 of 6 (T/C endpoint: mean survival time, dose: 400.0 mg/kg/injection, schedule: Q01DX001 (ip), vehicle: saline sonified).
Turning to `CC1=CC2C(O)(CC(CO)=CC3C4C(C)(C)C4(OC(=O)c4ccccc4)C(OC(=O)c4ccccc4)C(C)C32O)C1=O` (stereo not given), the survivor count (T/C endpoint: median survival time, dose: 2.0 mg/kg/injection, schedule: Q01DX009 (ip), vehicle: saline with Tween-80) is given as 2 of 6.
As for `COC(=O)c1cccn1C(=O)c1cc(OC)c(OC)cc1[N+](=O)[O-]`, where the note is “T/C endpoint: mean survival time, dose: 200.0 mg/kg/injection, schedule: Q04DX002 (ip), vehicle: saline with Tween-80”, the survivor count is reported as 1 of 3.
Take `CCCCN(C)N=Nc1ccc(C(N)=O)cc1`: the survivor count (T/C endpoint: mean survival time, dose: 300.0 mg/kg/injection, schedule: Q01DX009 (ip), vehicle: Klucel (hydroxypropylcellulose) (HPC)) is 0 of 6.
For `CCNCCNc1ccc(NCCNCC)c2c1C(=O)c1ccccc1C2=O`, the T/C (T/C endpoint: mean survival time, dose: 8.0 mg/kg/injection, schedule: Q01DX009 (ip), vehicle: acid diluted with saline, evaluated on day 30) was 128 % of control; the T/C (T/C endpoint: mean survival time, dose: 8.0 mg/kg/injection, schedule: Q01DX009 (ip), vehicle: acid diluted with saline, evaluated on day 35) was 132 % of control; the T/C (T/C endpoint: mean survival time, dose: 16.0 mg/kg/injection, schedule: Q01DX009 (ip), vehicle: acid diluted with saline, evaluated on day 30) is 130 % of control; the T/C (T/C endpoint: mean survival time, dose: 16.0 mg/kg/injection, schedule: Q01DX009 (ip), vehicle: acid diluted with saline, evaluated on day 35) was 132 % of control; the T/C under setting [4] is 137 % of control. The survivor count is recorded as 5 of 6 under setting [4] and 0 of 6 (T/C endpoint: mean survival time, dose: 64.0 mg/kg/injection, schedule: Q01DX009 (ip), vehicle: acid diluted with saline).
On to `CN(N=O)C(=O)Nc1ccc(C2CC(=O)N(C)C2=O)cc1` (stereo not given), for which the T/C by setting is: (T/C endpoint: mean survival time, dose: 100.0 mg/kg/injection, schedule: Q01DX001 (ip), vehicle: distilled water + Tween-80) 127 % of control; (T/C endpoint: mean survival time, dose: 200.0 mg/kg/injection, schedule: Q01DX001 (ip), vehicle: distilled water + Tween-80) 127 % of control.
Regarding `CC(C)=C(CO)CCC(C)C`, under setting [3], the survivor count is listed as 0 of 6.
Take `S=C(Nc1ccc(Cl)c(Cl)c1)N1c2ccccc2-n2cccc2C1c1cccnc1` (stereo not given): the T/C (T/C endpoint: mean survival time, dose: 400.0 mg/kg/injection, schedule: Q01DX009 (ip), vehicle: Klucel (hydroxypropylcellulose) (HPC)) is 130 [4 of 6 alive] and 138 % of control. Besides, the survivor count (T/C endpoint: mean survival time, dose: 800.0 mg/kg/injection, schedule: Q01DX009 (ip), vehicle: Klucel (hydroxypropylcellulose) (HPC)) is listed as 2 of 6.
For `CC1=NN(c2cccc(S(=O)(=O)O)c2)C(=O)C1N=Nc1cc(Cl)cc(S(=O)(=O)O)c1O.CC1=NN(c2cccc(S(=O)(=O)O)c2)C(=O)C1N=Nc1cc(Cl)cc(S(=O)(=O)O)c1O.[Cr]` (stereo not given), under “T/C endpoint: median survival time, dose: 800.0 mg/kg/injection, schedule: Q01DX009 (ip), vehicle: saline”, the survivor count is reported as 0 of 6.
Consider `COc1ccc(SC2=CC(=O)c3ccccc3C2=O)cc1`, for which the survivor count under setting [5] is given as 1 of 6.
With `c1ccc(C[P+](c2ccccc2)(c2ccccc2)c2ccccc2)cc1`, the survivor count is on record as 0 of 6 (T/C endpoint: mean survival time, dose: 100.0 mg/kg/injection, schedule: Q01DX001 (ip), vehicle: saline with Tween-80); 0 of 6 (T/C endpoint: mean survival time, dose: 200.0 mg/kg/injection, schedule: Q01DX001 (ip), vehicle: saline with Tween-80); 0 of 6 (T/C endpoint: mean survival time, dose: 400.0 mg/kg/injection, schedule: Q01DX001 (ip), vehicle: saline with Tween-80).
Consider `N/C(=N\O)c1ncn(C2CCCC2)c1N`, for which the survivor count under setting [5] is listed as 3 of 6.
As for `CCC[CH2][Sn]1([CH2]CCC)[O]C(=O)c2c(Cl)c(Cl)c(Cl)c(Cl)c2C(=O)[O]1`, the survivor count is 2 of 4 (T/C endpoint: mean survival time, dose: 40.0 mg/kg/injection, schedule: Q01DX001 (ip), vehicle: saline); 2 of 4 (T/C endpoint: mean survival time, dose: 80.0 mg/kg/injection, schedule: Q01DX001 (ip), vehicle: saline); 0 of 4 (T/C endpoint: mean survival time, dose: 100.0 mg/kg/injection, schedule: Q01DX001 (ip), vehicle: saline); 0 of 4 (T/C endpoint: mean survival time, dose: 200.0 mg/kg/injection, schedule: Q01DX001 (ip), vehicle: saline); 0 of 4 (T/C endpoint: mean survival time, dose: 400.0 mg/kg/injection, schedule: Q01DX001 (ip), vehicle: saline).
As for `COC1=C(N=[N+]=[N-])C(=O)C(OC)=C(N=[N+]=[N-])C1=O`, the survivor count runs as follows: under setting [1], 0 of 6; under setting [2], 0 of 6; under setting [3], 0 of 6.
Regarding `C[n+]1c(-c2ccc(NC(=O)c3ccc(C(=O)Nc4ccc(-c5cn6ccccc6[n+]5C)cc4)cc3)cc2)cn2ccccc21`, the T/C (T/C endpoint: median survival time, dose: 50.0 mg/kg/injection, schedule: Q01DX005 (ip), vehicle: saline with Tween-80) was 126 % of control. Further, under “T/C endpoint: median survival time, dose: 69.0 mg/kg/injection, schedule: Q01DX005 (ip), vehicle: saline with Tween-80”, the survivor count was 6 of 6.
As for `CCOc1cc2c(cc1C(C)c1ccc(OC)cc1)OCO2` (stereo not given), the survivor count reads like this: (T/C endpoint: median survival time, dose: 200.0 mg/kg/injection, schedule: Q01DX009 (ip), vehicle: distilled water + alcohol) 5 of 6; (T/C endpoint: median survival time, dose: 400.0 mg/kg/injection, schedule: Q01DX009 (ip), vehicle: distilled water + alcohol) 5 of 6.
Turning to `CN1CCS(=O)(=O)C1=O`, the survivor count runs as follows: (T/C endpoint: mean survival time, dose: 75.0 mg/kg/injection, schedule: Q01DX001 (ip), vehicle: saline) 3 of 6; (T/C endpoint: mean survival time, dose: 150.0 mg/kg/injection, schedule: Q01DX001 (ip), vehicle: saline) 1 of 6; (T/C endpoint: mean survival time, dose: 300.0 mg/kg/injection, schedule: Q01DX001 (ip), vehicle: saline) 0 of 6.
For the molecule `COc1ncn(C2CC(OC(=O)c3ccc(C)cc3)C(COC(=O)c3ccc(C)cc3)O2)c(=O)n1` (stereo not given), the survivor count runs as follows: under setting [1], 5 of 6; under setting [3], 6 of 6.
Regarding `CCOc1ccncc1[N+](=O)[O-]`, the survivor count by setting is: (T/C endpoint: mean survival time, dose: 200.0 mg/kg/injection, schedule: Q01DX009 (ip), vehicle: saline sonified) 3 of 6; (T/C endpoint: mean survival time, dose: 400.0 mg/kg/injection, schedule: Q01DX009 (ip), vehicle: saline sonified) 0 of 6.
Take `CCCCCCCCCCCC[n+]1ccc(C#N)cc1`: under “T/C endpoint: mean survival time, dose: 37.5 mg/kg/injection, schedule: Q01DX001 (ip), vehicle: saline”, the survivor count was 3 of 6.

(Values after PubChem BioAssay AID256 (DTP/NCI, 2004).)
